In PubChem BioAssay AID1825 (The Scripps Research Institute Molecular Screening Center, 2009):
The entries are a selection whose mix differs from that of the whole data set. Active and inactive are the calls of the source. Cut-off read from the data, not from the text of the source: active = inhibition above about 22%; inactive = the rest.

Experiment: IEC-6 cell viability reduction – luminescence, cytotoxicity control for KLF5 inhibitor project, primary screen (AID 1825);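 note: 0% = plate median of test compound wells and 100% = cytotoxic reference compound wells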
Conditions: IEC-6 cytotoxicity, at 5 µM, stronger effect = higher value

SMILES	inhibition
COc1ccccc1C(=O)NNC(=S)NC(=O)c1ccco1	active: 22.7%
